In paper PMC7052939 one finds binding data, which are given here for 2 substances.

By UniProt entry, the sequences of proteins in these tests, tags left out. Residues count along the entry.
UniProt P05556: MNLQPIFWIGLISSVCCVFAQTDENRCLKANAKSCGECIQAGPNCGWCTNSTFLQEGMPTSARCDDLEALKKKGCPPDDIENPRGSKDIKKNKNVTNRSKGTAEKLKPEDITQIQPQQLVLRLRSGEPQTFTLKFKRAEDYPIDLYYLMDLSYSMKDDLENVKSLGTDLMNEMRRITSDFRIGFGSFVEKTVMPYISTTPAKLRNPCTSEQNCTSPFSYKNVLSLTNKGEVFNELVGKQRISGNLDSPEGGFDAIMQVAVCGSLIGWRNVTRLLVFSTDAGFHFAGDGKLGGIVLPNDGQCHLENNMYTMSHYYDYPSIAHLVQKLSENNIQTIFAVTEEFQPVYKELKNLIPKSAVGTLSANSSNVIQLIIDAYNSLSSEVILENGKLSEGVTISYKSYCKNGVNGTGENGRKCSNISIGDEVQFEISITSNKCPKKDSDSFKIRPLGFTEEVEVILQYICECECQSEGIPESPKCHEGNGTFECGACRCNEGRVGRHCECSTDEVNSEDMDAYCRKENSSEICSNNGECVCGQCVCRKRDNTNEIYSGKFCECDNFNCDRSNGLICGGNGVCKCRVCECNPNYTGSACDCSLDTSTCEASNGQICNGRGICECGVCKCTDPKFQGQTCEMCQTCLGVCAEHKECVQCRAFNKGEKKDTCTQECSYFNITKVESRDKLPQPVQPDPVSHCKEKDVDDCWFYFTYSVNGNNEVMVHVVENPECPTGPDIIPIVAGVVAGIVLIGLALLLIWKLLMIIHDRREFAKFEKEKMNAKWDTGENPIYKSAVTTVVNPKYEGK
UniProt P16144, residues 28-1822: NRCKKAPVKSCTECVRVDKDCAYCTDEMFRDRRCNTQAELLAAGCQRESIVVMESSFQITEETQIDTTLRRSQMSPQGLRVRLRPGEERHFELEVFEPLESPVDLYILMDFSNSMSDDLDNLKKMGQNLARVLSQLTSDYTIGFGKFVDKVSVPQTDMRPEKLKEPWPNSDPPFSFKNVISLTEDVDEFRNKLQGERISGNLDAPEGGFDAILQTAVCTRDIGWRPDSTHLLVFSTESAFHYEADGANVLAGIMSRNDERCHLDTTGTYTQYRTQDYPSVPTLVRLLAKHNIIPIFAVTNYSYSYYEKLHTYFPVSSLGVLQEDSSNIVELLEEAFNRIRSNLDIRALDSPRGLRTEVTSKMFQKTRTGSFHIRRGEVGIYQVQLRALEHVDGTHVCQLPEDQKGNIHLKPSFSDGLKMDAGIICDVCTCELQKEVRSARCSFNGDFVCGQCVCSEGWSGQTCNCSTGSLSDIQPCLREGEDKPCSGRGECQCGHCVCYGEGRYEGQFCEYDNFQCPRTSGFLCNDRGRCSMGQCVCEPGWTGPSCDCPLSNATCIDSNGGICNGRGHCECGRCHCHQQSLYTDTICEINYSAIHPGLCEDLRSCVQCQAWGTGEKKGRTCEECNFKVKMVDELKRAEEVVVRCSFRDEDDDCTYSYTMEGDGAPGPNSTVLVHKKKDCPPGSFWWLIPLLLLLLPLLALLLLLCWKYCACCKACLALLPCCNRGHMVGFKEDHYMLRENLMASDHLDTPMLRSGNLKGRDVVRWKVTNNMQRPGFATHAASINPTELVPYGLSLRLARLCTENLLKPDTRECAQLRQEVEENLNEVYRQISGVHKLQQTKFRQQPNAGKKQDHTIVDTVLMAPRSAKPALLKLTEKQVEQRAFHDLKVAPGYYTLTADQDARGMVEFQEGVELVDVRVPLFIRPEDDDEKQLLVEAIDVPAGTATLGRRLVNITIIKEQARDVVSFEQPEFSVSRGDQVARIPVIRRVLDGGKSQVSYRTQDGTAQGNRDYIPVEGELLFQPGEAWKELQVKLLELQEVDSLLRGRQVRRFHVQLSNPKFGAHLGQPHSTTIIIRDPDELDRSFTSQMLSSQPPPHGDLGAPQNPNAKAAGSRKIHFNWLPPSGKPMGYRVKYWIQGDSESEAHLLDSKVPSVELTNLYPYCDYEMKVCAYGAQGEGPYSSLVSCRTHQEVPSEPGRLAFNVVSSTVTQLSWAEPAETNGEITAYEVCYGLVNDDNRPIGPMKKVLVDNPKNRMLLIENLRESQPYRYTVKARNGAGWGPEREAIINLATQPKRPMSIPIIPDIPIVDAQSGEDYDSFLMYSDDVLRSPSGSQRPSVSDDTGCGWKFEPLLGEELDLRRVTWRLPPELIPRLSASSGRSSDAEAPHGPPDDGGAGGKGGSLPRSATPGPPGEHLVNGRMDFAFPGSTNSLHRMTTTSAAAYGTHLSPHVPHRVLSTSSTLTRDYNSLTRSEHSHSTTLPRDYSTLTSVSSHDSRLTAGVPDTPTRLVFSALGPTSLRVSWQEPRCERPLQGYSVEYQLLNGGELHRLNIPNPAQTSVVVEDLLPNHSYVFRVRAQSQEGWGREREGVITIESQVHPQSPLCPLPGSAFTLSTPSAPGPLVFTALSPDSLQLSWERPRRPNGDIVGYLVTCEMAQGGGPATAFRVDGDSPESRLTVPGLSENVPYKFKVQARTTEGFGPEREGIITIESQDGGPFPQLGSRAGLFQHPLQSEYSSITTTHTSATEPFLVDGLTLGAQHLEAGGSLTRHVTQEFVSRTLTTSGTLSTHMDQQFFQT
UniProt P02751, residues 32-2477: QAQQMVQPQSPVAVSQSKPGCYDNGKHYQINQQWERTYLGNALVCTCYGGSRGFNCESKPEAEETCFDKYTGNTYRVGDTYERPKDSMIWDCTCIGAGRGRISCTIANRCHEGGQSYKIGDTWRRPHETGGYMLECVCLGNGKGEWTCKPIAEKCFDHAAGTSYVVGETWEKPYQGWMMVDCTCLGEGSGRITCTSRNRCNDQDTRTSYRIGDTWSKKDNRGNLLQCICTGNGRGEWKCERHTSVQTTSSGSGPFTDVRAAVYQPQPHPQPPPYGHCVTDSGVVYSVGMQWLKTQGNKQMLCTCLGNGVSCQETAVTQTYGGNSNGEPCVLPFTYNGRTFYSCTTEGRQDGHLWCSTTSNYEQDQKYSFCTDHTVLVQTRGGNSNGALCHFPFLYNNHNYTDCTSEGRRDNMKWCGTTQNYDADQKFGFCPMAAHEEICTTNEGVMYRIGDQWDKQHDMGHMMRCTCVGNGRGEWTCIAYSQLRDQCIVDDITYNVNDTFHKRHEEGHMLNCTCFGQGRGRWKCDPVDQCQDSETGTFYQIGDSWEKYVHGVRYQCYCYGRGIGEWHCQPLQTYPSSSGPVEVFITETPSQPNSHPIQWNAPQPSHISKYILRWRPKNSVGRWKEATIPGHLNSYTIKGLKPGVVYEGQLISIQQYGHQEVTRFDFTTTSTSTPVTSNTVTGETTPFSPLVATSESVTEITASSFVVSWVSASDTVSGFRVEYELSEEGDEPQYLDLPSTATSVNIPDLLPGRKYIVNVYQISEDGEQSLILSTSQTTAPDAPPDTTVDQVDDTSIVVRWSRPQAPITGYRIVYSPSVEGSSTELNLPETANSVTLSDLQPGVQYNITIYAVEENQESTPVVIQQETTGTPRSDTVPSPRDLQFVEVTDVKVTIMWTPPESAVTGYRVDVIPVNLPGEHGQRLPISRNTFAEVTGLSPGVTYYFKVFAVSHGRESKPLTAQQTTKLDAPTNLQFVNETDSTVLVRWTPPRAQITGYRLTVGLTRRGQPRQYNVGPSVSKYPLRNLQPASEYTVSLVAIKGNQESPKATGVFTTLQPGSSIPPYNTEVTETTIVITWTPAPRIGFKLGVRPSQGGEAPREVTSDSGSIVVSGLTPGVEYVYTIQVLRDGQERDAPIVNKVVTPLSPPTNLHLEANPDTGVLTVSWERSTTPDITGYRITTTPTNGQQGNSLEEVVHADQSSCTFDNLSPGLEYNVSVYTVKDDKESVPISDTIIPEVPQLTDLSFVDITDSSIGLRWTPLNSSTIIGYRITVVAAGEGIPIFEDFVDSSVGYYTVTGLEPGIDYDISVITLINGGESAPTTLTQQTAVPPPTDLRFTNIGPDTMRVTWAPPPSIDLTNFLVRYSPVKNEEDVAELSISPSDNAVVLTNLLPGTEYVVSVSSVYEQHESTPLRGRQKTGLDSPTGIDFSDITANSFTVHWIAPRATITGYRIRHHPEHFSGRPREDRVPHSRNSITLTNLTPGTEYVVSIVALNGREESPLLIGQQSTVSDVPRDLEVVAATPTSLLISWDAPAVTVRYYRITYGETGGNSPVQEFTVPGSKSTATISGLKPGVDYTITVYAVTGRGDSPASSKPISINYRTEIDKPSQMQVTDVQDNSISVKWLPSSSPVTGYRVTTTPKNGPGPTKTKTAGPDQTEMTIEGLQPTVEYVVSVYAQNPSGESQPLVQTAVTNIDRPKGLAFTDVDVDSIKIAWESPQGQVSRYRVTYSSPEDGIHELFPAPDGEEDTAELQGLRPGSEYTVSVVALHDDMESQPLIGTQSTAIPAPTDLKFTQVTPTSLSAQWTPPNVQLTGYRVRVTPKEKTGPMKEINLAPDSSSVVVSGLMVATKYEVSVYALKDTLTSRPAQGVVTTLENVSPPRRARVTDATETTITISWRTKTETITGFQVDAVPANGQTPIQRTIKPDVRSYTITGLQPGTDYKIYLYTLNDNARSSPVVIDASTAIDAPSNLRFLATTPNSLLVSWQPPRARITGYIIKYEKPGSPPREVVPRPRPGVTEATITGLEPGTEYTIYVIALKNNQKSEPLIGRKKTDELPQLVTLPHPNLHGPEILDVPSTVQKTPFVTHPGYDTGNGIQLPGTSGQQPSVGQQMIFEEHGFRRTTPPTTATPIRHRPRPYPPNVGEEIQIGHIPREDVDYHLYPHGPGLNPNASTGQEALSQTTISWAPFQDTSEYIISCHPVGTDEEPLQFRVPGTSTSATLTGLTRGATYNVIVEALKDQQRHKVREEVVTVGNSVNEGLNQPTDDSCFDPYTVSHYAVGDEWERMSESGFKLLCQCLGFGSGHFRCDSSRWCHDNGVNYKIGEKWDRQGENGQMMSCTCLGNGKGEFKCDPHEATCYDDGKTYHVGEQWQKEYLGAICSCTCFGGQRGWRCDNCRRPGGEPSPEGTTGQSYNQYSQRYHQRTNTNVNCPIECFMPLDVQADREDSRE

Holding throughout (assay): co-IP; endogenous proteins in MHCC-LM3 and Bel-7402 lysates (NP-40 lysis buffer, PMSF); pre-cleared with Protein A+G Agarose; 2 micrograms primary antibody overnight at 4°C; Protein A+G Agarose 3 hours at 4°C; washed five times with PBS; Western blot
In general terms: In western blotting, separated proteins are transferred to a membrane and probed.

For experiment [1], the target named is T1, ITGB7 (human (endogenous in MHCC-LM3 and Bel-7402)) (UniProt P26010).
T1 sequence: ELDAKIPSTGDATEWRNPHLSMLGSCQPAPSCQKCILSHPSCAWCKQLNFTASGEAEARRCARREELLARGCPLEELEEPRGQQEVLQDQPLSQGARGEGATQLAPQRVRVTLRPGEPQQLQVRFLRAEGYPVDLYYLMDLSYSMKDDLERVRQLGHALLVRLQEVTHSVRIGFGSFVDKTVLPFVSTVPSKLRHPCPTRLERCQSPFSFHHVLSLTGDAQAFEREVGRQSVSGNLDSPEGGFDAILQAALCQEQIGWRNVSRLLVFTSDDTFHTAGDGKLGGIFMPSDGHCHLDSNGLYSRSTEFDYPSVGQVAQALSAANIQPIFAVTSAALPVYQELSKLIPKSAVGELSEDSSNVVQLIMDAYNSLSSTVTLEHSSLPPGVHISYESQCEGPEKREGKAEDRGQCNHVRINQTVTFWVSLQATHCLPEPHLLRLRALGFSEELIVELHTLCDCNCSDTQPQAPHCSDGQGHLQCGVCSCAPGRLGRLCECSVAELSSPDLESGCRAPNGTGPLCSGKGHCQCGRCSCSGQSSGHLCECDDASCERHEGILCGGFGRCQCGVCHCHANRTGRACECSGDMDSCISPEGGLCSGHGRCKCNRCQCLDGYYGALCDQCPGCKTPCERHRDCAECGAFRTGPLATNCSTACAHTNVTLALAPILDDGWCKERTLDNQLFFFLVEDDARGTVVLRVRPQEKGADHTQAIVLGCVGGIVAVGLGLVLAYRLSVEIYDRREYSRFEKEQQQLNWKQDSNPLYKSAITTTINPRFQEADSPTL

Experiment [2] concerns the target ITGB1 (human (endogenous in MHCC-LM3 and Bel-7402)) (UniProt P05556).
The target in experiment [3] is ITGB4 (human (endogenous in MHCC-LM3 and Bel-7402)) (UniProt P16144).

No constants are given. Whether binding was seen depends on the method and setting. In cells and extracts the contact can be indirect. Some binding calls cover weakened binding; strength is not graded here.

“fibronectin (from UniProt P02751 32-2477)”: the binding entry in experiment [1] is “binds”.
On to β-catenin (from UniProt P35222 1-781), for which the binding result in experiment [2], in experiment [1] and in experiment [3] was “binds” throughout.
